Record: PubChem BioAssay AID1224827 (NIAID, 2016)
In all, the deposit lists about 3,800 reagents; below is a part drawn at random. Over the whole deposit, about 2,200 (57%) are marked active. 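Active means a strong reporter change in either direction; calls are per siRNA, not per gene; qiagen siRNAs gave weaker effects.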 The numbers tell different reagents against one gene apart. Further read-outs or replicates are left out here. Reagent sequences are not shown.

Assay: 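Identify regulators of the macrophage TNF-alpha response to bacterial LPS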 (follow-up of hits)
Cell system: RAW264.7 G9 mouse macrophage reporter clone
Knock-down reagent: single siRNA against mouse genes, 100 nM siRNA
Time to read-out: siRNA for 2 days, then LPS about 16 h
Conditions: bacterial lipopolysaccharide (LPS), 10 ng/ml, cells fixed after overnight (about 16 h) stimulation
Measurement: 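TNF promoter reporter red fluorescence in nuclei, background subtracted, normalised per plate and to non-targeting control siRNA, as z-scores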
Scale: TNF reporter z-score, mean and TNF reporter z-score: higher = stronger Tnf promoter reporter signal; gene median z, three same-vendor siRNAs: higher = stronger Tnf reporter signal for the gene
Hit rule: 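An siRNA is called active when its mean z-score over replicates is at least +2 or at most -2; control wells get no call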

The opening 3 entries, to show the layout:
gene	siRNA no.	TNF reporter z-score, mean	gene median z, three same-vendor siRNAs	TNF reporter z-score, repeat 1	activity call
Ndor1 (NADPH dependent diflavin oxidoreductase 1)	1	-1.42	-4.08	-1.84	inactive
Ndor1 (NADPH dependent diflavin oxidoreductase 1)	2	-4.26	-4.08	-4.03	active
Ndor1 (NADPH dependent diflavin oxidoreductase 1)	3	-4.25	-4.08	-4.36	active

Main list, from the start:
gene	siRNA no.	TNF reporter z-score, mean	gene median z, three same-vendor siRNAs	TNF reporter z-score, repeat 1	activity call
Ndor1 (NADPH dependent diflavin oxidoreductase 1)	1	-1.42	-4.08	-1.84	inactive
Ndor1 (NADPH dependent diflavin oxidoreductase 1)	2	-4.26	-4.08	-4.03	active
Ndor1 (NADPH dependent diflavin oxidoreductase 1)	3	-4.25	-4.08	-4.36	active
Ndor1 (NADPH dependent diflavin oxidoreductase 1)	4	6.52	1.49	11.7	active
Ndor1 (NADPH dependent diflavin oxidoreductase 1)	5	3.38	1.49	6.68	active
Ndor1 (NADPH dependent diflavin oxidoreductase 1)	6	1.32	1.49	1.65	inactive
Camk1d (calcium/calmodulin-dependent protein kinase ID)	1	-1.81	-1.91	-2.04	inactive
Camk1d (calcium/calmodulin-dependent protein kinase ID)	2	-2.36	-1.91	-2.94	active
Camk1d (calcium/calmodulin-dependent protein kinase ID)	3	-2.5	-1.91	-3.96	active
Or52e15 (olfactory receptor family 52 subfamily E member 15)	1	-2.7	-4.23	-3	active
Or52e15 (olfactory receptor family 52 subfamily E member 15)	2	-4.23	-4.23	-3.87	active
Or52e15 (olfactory receptor family 52 subfamily E member 15)	3	-4.68	-4.23	-4.73	active
Or52e15 (olfactory receptor family 52 subfamily E member 15)	4	2.86	0.818	4.26	active
Or52e15 (olfactory receptor family 52 subfamily E member 15)	5	1.94	0.818	4.15	inactive
Or52e15 (olfactory receptor family 52 subfamily E member 15)	6	-0.528	0.818	0.183	inactive
Kcnj1 (potassium inwardly-rectifying channel, subfamily J, member 1)	1	-1.36	-3.3	-1.41	inactive
Kcnj1 (potassium inwardly-rectifying channel, subfamily J, member 1)	2	-3.3	-3.3	-3.53	active
Kcnj1 (potassium inwardly-rectifying channel, subfamily J, member 1)	3	-4.41	-3.3	-4.26	active
Pwp2 (PWP2 periodic tryptophan protein homolog (yeast))	1	-3.76	-4	-3.81	active
Pwp2 (PWP2 periodic tryptophan protein homolog (yeast))	2	-3.94	-4	-3.69	active
Pwp2 (PWP2 periodic tryptophan protein homolog (yeast))	3	-5.38	-4	-5.39	active
Pwp2 (PWP2 periodic tryptophan protein homolog (yeast))	4	-0.000165	-1.51	0.862	inactive
Pwp2 (PWP2 periodic tryptophan protein homolog (yeast))	5	0.0229	-1.51	2.2	inactive
Pwp2 (PWP2 periodic tryptophan protein homolog (yeast))	6	-2.81	-1.51	-3.13	active
Shbg (sex hormone binding globulin)	1	-0.797	-1.71	-1.17	inactive
Shbg (sex hormone binding globulin)	2	-1.71	-1.71	-1.66	inactive
Shbg (sex hormone binding globulin)	3	-2.56	-1.71	-3.06	active
Shbg (sex hormone binding globulin)	4	1.01	-0.354	2.56	inactive
Shbg (sex hormone binding globulin)	5	0.656	-0.354	1.48	inactive
Shbg (sex hormone binding globulin)	6	-2.95	-0.354	-3.05	active
Rpn2 (ribophorin II)	1	-3.73	-4.13	-3.54	active
Rpn2 (ribophorin II)	2	-4.37	-4.13	-4.39	active
Rpn2 (ribophorin II)	3	-4.41	-4.13	-5.01	active
Rpn2 (ribophorin II)	4	1.29	-0.64	3.48	inactive
Rpn2 (ribophorin II)	5	1.07	-0.64	3.07	inactive
Rpn2 (ribophorin II)	6	-1.32	-0.64	-0.378	inactive
Trim12a (tripartite motif-containing 12A)	1	-2.85	-4.95	-2.09	active
Trim12a (tripartite motif-containing 12A)	2	-4.95	-4.95	-4.5	active
Trim12a (tripartite motif-containing 12A)	3	-5.57	-4.95	-5.44	active
Trim12a (tripartite motif-containing 12A)	4	0.28	-0.575	1.09	inactive
Trim12a (tripartite motif-containing 12A)	5	0.135	-0.575	0.888	inactive
Trim12a (tripartite motif-containing 12A)	6	-1.07	-0.575	-1.25	inactive
Htra2 (HtrA serine peptidase 2)	1	-0.72	-2.46	-1.15	inactive
Htra2 (HtrA serine peptidase 2)	2	-2.56	-2.46	-3.22	active
Htra2 (HtrA serine peptidase 2)	3	-3.02	-2.46	-3.01	active
Htra2 (HtrA serine peptidase 2)	4	4.74	0.812	8.91	active
Htra2 (HtrA serine peptidase 2)	5	2.69	0.812	4.32	active
Htra2 (HtrA serine peptidase 2)	6	-2.16	0.812	-2.66	active
Nfe2 (nuclear factor, erythroid derived 2)	1	-1.29	-3.54	-2.92	inactive
Nfe2 (nuclear factor, erythroid derived 2)	2	-3.77	-3.54	-2.45	active
Nfe2 (nuclear factor, erythroid derived 2)	3	-4.78	-3.54	-4.15	active
Nfe2 (nuclear factor, erythroid derived 2)	4	5.45	2.12	8.14	active
Nfe2 (nuclear factor, erythroid derived 2)	5	0.865	2.12	0.202	inactive
Nfe2 (nuclear factor, erythroid derived 2)	6	1.21	2.12	2.71	inactive
Ccr2 (C-C motif chemokine receptor 2)	1	5.52	3.09	5.67	active
Ccr2 (C-C motif chemokine receptor 2)	2	2.9	3.09	3.88	active
Ccr2 (C-C motif chemokine receptor 2)	3	1.18	3.09	0.0546	inactive
Ccr2 (C-C motif chemokine receptor 2)	4	0.311	-0.168	0.225	inactive
Ccr2 (C-C motif chemokine receptor 2)	5	-0.157	-0.168	0.247	inactive
Ccr2 (C-C motif chemokine receptor 2)	6	-2.12	-0.168	-1.93	active
